In patent publication US20140243391A1, “PHOSPHOLIPID-DETERGENT CONJUGATES AND USES THEREOF” (CENTRE NATIONAL DE LA RECHERCHE SCIENTIFIQUE, priority 2011, published 2014):
Some results were stated once for a whole list of compounds, not compound by compound.

Test system: 16HBE cells
Test: Lactate dehydrogenase (LDH) release assay, 16HBE
Details: 48 h, higher lipid concentration/dose (4.0 nmol, 40 μM)

## Triton X-100 [TX100]
  LDH release: more than 50%
